Source: patent US20250262146A1, “PLATFORM NANOPARTICLE TECHNOLOGY FOR SUSTAINED DELIVERY OF HYDROPHOBIC DRUGS” (UNIVERSITY OF MARYLAND, BALTIMORE, priority 2022, published 2025)
Some results were stated once for a whole list of compounds, not compound by compound. At least one structure is not confirmed: it was looked up by name or label, or the drawing left a doubt.

System: MOLM14 human acute myeloid cells
Experiment: MTT cytotoxicity assay, MOLM14
Assay type: cell-based
Description: The MOLM14 AML cell line, MV4;11, and THP1 cell lines were cultured and incubated in RPMI 1640 medium with 10% FBS at 37° C. and air containing 5% CO2. When the cells reached about 70% confluency, the cells were split with a density of 40,000 cells per cm^2. Adult Retinal Pigment Epithelial (ARPE-19) cells were grown in Dulbecco's Modified Eagle Medium (DMEM)/F12 (1:1) with 10% FBS and 1% Penicillin-Streptomycin (Pen-Strep). Dental Pulp Stem Cells (DPSCs) were grown in DMEM with glutamine and 10% FBS and 1% Pen-Strep. A Hemolysis assay kit was purchased from Creative Biolabs™.
The cytotoxicity of plain nanogels, plain SDS nanogels and 2, 5, 10 and 15 wt % ART631-loaded NanoART631 were assessed using thiazolyl blue tetrazolium bromide (MTT) and WST1 assays against MOLM14 human acute myeloid cells, MV4;11 cells, THP1 cells, normal adult retinal pigment epithelium-19 (ARPE-19) cells, and dental pulp stem cells (DPSCs). […] Pure ART631, ART838, 5 and 10 wt % NanoART631 IC50 were determined by adding 5e^−6, 5e^−5, 5e^−4, 6.25e^−4, 0.001, 0.0025, 0.005, 0.01, 0.05, 0.1, 0.2, 0.5, 1, 5, 10 mg·mL-1 of the formulation to MOLM14 AML cells. […] Absorbance was read at 570 nm using a BioTek™ cytation 5 microplate reader for all experiments after removing all the wells contents and then dissolving the formazan crystals in 150 μL of DMSO. […]

| SMILES | concentration needed to kill 90% cells |
| --- | --- |
| C=CCO/N=C(/C[C@H]1O[C@@H]2O[C@@]3(C)CC[C@H]4[C@H](C)CC[C@@H]([C@H]1C)[C@@]24OO3)[C@H]1O[C@@H]2O[C@@]3(C)CC[C@H]4[C@H](C)CC[C@@H]([C@H]1C)[C@@]24OO3 [ART631] | more than 0.05 mg/mL |
| C[C@@H]1CCC2[C@@H](C)[C@@H](CC(COP(=O)(Oc3ccccc3)Oc3ccccc3)C[C@H]3O[C@@H]4O[C@@]5(C)CCC6[C@H](C)CCC([C@H]3C)[C@]64OO5)O[C@@H]3O[C@@]4(C)CCC1[C@@]23OO4 (some centres unmarked) [ART838] | more than 0.05 mg/mL |
